Results on 45 compounds are retold here after the supplement of paper PMC8616043.

Where a name gives a salt, the structure may show the parent alone. This is one part of the list. Repeats in this data set agree poorly, so a single value says little.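 Human U-2 OS cells stably expressing a GFP sensor with a nuclear import signal and classical export signal were transfected to produce PR50, a 50-repeat proline–arginine dipeptide from ALS/FTD gene C9ORF72. Nuclear-minus-cytoplasm GFP was scaled from DMSO (low) to PR-only (high), scored against plate test wells; strongly negative scores marked PR-reversing hits.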

The experiment concerns U-2 OS NCT-C biosensor cells expressing PR50. Kind of experiment: Z-score of normalised NCT-C biosensor translocation index in PR50-expressing cells; higher = more nuclear biosensor (more disrupted nuclear export). The settings on record: 3 µM; 24 h.
Consider `NC(=O)c1cnccn1` [Pyrazine carboxamide], for which the Z-score is inactive: -0.578. For the compound `NC(=O)c1cnccn1` [Pyrazinamide], the Z-score was inactive: -0.0732. Regarding `COc1cc2nc(N3CCCC3)nc(NCCCCCN3CCCC3)c2cc1OC` [UNC0379  trifluoroacetate salt], the Z-score is inactive: -0.0306. The figure for `O=C(c1cccc(-c2ccc(-c3cn(C(=O)N4CCCCC4c4ccccc4)nn3)cc2)c1)N1CCCCC1` (stereo not given) is inactive: 0.639.

For the compound `Oc1ccc(-c2nc(-c3ccc(F)cc3)c(-c3ccncc3)[nH]2)cc1`, the Z-score is inactive: 2.53.

With `O=c1n(CCCN2CCN(c3cccc(Cl)c3)CC2)nc2ccccn12` [Trazodone hydrochloride], the Z-score was inactive: -0.995.

`O=c1n(CCCN2CCN(c3cccc(Cl)c3)CC2)nc2ccccn12` [Trazodone·HCl]: the Z-score is inactive: 0.421. In the case of `Cc1ccccc1C(C(=O)NC1CCCCC1)N(C(=O)Cn1ccnc1C)c1cccc(F)c1` (stereo not given) it was inactive: 0.136; in that of `CCOc1cc(C(=O)Nc2ccc(Cl)c(-c3nc4ccccc4[nH]3)c2)cc(OCC)c1OCC`, inactive: -1.81.

On to `CC1(C)S[C@@H]2[C@H](NC(=O)[C@H](N)c3ccccc3)C(=O)N2[C@H]1C(=O)O` [Ampicillin Trihydrate], for which the Z-score was inactive: 0.0491. Turning to `C=C[C@H]1CN2CC[C@H]1C[C@H]2[C@H](O)c1ccnc2ccc(OC)cc12` [Quinine·HCl·2H2O], the Z-score was inactive: 0.0763. As to `C=C[C@H]1CN2CC[C@H]1C[C@H]2[C@H](O)c1ccnc2ccc(OC)cc12` [Quinine sulfate], the Z-score was inactive: 0.257. In the case of `Nc1cc(N2CCCCC2)nc(N)[n+]1[O-]` [Minoxidil] it was inactive: -0.445; in that of `COc1ccc2cc([C@H](C)C(=O)O)ccc2c1` [(-)-Naproxen sodium salt], inactive: 0.176. The figure for `COc1ccc2cc([C@H](C)C(=O)O)ccc2c1` [Naproxen] is inactive: 0.157; for `CC1=CC(=O)CC(C)(C)C1(O)/C=C/C(C)=C\C(=O)O` (racemic) [(±)-Abscisic acid] it is inactive: 0.194; for `C[C@]12CCC(=O)C=C1[C@@H]1C[C@@H]1[C@H]1[C@@H]3[C@@H]4C[C@@H]4[C@@]4(CCC(=O)O4)[C@@]3(C)CC[C@@H]12` [Drospirenone] it is inactive: -0.246.

In the case of `OC1(c2ccc(Cl)cc2)CCN(Cc2c[nH]c3ccccc23)CC1`, the Z-score is inactive: -0.687. The figure for `N#Cc1c(N2CCCC2)nc(N)c2c(N)nc(N3CCCC3)cc12` is inactive: 0.059. The figure for `COc1ccc(C[C@H]2c3cc(OC)c(OC)cc3CC[N+]2(C)C)cc1OC` [Laudanosine methiodide] is inactive: 0.075. In the case of `O=C(O)c1cc(/N=N/c2ccc(S(=O)(=O)Nc3ccccn3)cc2)ccc1O` [Sulfasalazine] it was inactive: 0.676; in that of `O=C(O)c1cc2cc(Cc3cccnc3)ccc2o1` [Furegrelate sodium salt], inactive: -0.831. Turning to `C#C[C@]1(O)CC[C@H]2[C@@H]3CCC4=CC(=O)CC[C@@H]4[C@H]3C(=C)C[C@@]21CC` [Etonogestrel], the Z-score is inactive: 0.384.

For `O=C(O)c1cc(N(Cc2ccccc2O)Cc2cc(O)ccc2O)ccc1O` [Lavendustin A], the Z-score was inactive: 0.934. In the case of `CN/C(=N\CCSCc1nc[nH]c1C)NC#N` [Cimetidine] it was inactive: -0.271. Regarding `c1ccc(C2CN3CCSC3=N2)cc1` (single isomer, unassigned; (-)) [(-)-Tetramisole hydrochloride], the Z-score was inactive: -0.638. The figure for `C/C(=C\C(=O)OCCCCCCCCC(=O)O)C[C@@H]1OC[C@H](C[C@@H]2O[C@H]2[C@@H](C)[C@H](C)O)[C@@H](O)[C@H]1O` [Mupirocin] is inactive: -0.49; for `C[C@@H]1C[C@H]2[C@@H]3CCC4=CC(=O)C=C[C@]4(C)[C@@]3(Cl)[C@@H](O)C[C@]2(C)[C@@]1(OC(=O)c1ccco1)C(=O)CCl` [Mometasone Furoate] it is inactive: -0.0554; for `O=C(O)[C@H](CC(=O)N1C[C@H]2CCCC[C@H]2C1)Cc1ccccc1` [Mitiglinide calcium] it is inactive: -0.0263.

Take `C[C@]12CCC3=C4CCC(=O)C=C4CC[C@H]3[C@@H]1CC[C@@]2(O)CC#N` [Dienogest]: the Z-score is inactive: -0.327. Consider `c1coc(CNc2ncnc3[nH]cnc23)c1` [Kinetin], for which the Z-score is inactive: -0.211. In the case of `COc1cc2ncnc(-n3nc(-c4ccccn4)nc3N)c2cc1OC` it was inactive: 0.2. In the case of `CC(C)OC(=O)C(C)(C)Oc1ccc(C(=O)c2ccc(Cl)cc2)cc1` [Fenofibrate] it was inactive: 0.664; in that of `CCOC(=O)[C@@H](N)CCC(=O)N[C@@H](CSCc1ccccc1)C(=O)N[C@@H](C(=O)OCC)c1ccccc1` [Ezatiostat], inactive: 1.55; in that of `Cc1cc2c(s1)Nc1ccccc1N=C2N1CCN(C)CC1` [Olanzapine], inactive: -0.369. `COc1cc2c(NC3CCN(C)CC3)nc(N3CCCN(C)CC3)nc2cc1OCCCN(C)C`: the Z-score was active: -2.61. In the case of `CC=CC1=C(C(=O)O)N2C(=O)[C@@H](NC(=O)[C@H](N)c3ccc(O)cc3)[C@H]2SC1` [Cefprozil] it was inactive: 0.449; in that of `NC(=O)CC[C@H](N)C(=O)O` [L-Glutamine], inactive: -0.53; in that of `COC(=O)CCC(=O)CN` [Methyl Aminolevulinate·HCl], inactive: 0.0351. The figure for `CCCNC(=O)Nc1ccc(Oc2ncnc3cc(OC)c(OC)cc23)cc1Cl` is inactive: -0.473. The figure for `O=C(O)c1cc(=O)c2c(Cl)cc(Cl)cc2[nH]1` [5,7-  Dichlorokynurenic acid] is inactive: -0.727. For `Cc1cn(-c2cc(NC(=O)c3ccc(C)c(Nc4nccc(-c5cccnc5)n4)c3)cc(C(F)(F)F)c2)cn1` [Nilotinib], the Z-score is inactive: -0.0218. The figure for `CCCCN(CCCC)CC(O)c1cc(Cl)cc2c1-c1ccc(Cl)cc1/C2=C/c1ccc(Cl)cc1` (stereo not given) [Lumefantrine] is inactive: -0.24. The figure for `CC(C)(C)c1ccc(S(=O)(=O)/C=C/C#N)cc1` is inactive: 2.66. The figure for `O=c1[nH]c2cc(C(F)(F)F)ccc2n1-c1cc(C(F)(F)F)ccc1O` is inactive: -0.579.
